Some of these results come from one statement about several compounds together.
Test system: primary human bronchial epithelial cells (HBECs)
Experiment: basal cell differentiation of primary HBECs in air-liquid interface (ALI) cultures
Assay type: cell-based
Conditions: for time to express luminal cell markers: acetylated α-tubulin, SNTN, SCGB3A2; for time to fully differentiate into pseudostratified ciliated epithelium: untreated cells take 3-4 weeks
From the text: Cell Culture. Primary human bronchial epithelial cells were isolated as previously described (Fulcher M L & Randell S H (2013) Methods Mol Biol 945:109-121) and passage 1 cells were derived from human lungs unsuitable for transplantation from non-smoker organ donors without pre-existing lung disease under protocol #03-1396 approved by the University of North Carolina at Chapel Hill Biomedical Institutional Review Board. Informed consent was obtained from authorized representatives of all organ donors. 30,000 cells were plated into each well of 6.5 mm polyester inserts containing 0.4 μm pores (Sigma-CLS3470) coated with Type IV human placenta collagen (Sigma-C7521). 100 μl of ALI medium was added to the insert and 600 μl of ALI medium was added to the well at the time of plating. At Day 3, ALI medium from the insert was removed while that in the well was changed daily for 28 days. At Day 28, the inserts containing the cells were removed from their wells, washed with PBS, and incubated at 37° C. for 30 minutes with 1×10^8 CFU S. aureus. Cells were then washed three times with PBS and returned to wells containing 600 μl of ALI medium to regrow. Cells were harvested at multiple time points up to five days after injury for protein or RNA extraction. All cultures were maintained at 37° C. in humidified air containing 5% CO2.
First, the role of Abl kinases in basal cell differentiation in primary human bronchial epithelial cells (HBECs) in air-liquid interface (ALI) cultures was examined. Basal cells were isolated from human donor lungs and plated on polyester transwell inserts at passage 1. Once the cells were 100% confluent (3-4 days after plating), media from the top chamber of the transwell insert was removed to promote differentiation of the basal cells into a pseudostratified ciliated epithelium (FIG. 19A). […] Among these are acetylated α-tubulin and SNTN (ciliated cell marker) and SCGB3A2 (secretory cell marker) (FIG. 19C).
To identify whether Abl kinase inhibition promotes early (Krt5+ cells→Krt8+ cells) or late (Krt8+→acetylated α-tubulin or Scgb1a1+ cells) differentiation, a time course experiment in primary HBEC ALI cultures was conducted. Primary HBECs were plated on polyester transwell inserts and treated with vehicle control or GNF5 24 hours after plating.

| Compound | time to express luminal cell markers [days] | time to fully differentiate into pseudostratified ciliated epithelium |
| --- | --- | --- |
| Cc1cn(-c2cc(NC(=O)c3ccc(C)c(Nc4nccc(-c5cccnc5)n4)c3)cc(C(F)(F)F)c2)cn1 [nilotinib] | ≤ 7 | less than 14 days |
| O=C(NCCO)c1cccc(-c2cc(Nc3ccc(OC(F)(F)F)cc3)ncn2)c1 [GNF5, N-(2-Hydroxyethyl)-3-(6-(4-(trifluoromethoxy)phenylamino)pyrimidin-4-yl)benzamide] | ≤ 7 | less than 14 days |

From patent publication US12419891B2, “Compositions for the treatment of pathogenic- and/or chemical-induced lung injury and for the treatment of cancer and methods of using same” (Duke University, priority 2019, dated 2025)
